Experimental data: article PMC4161973
Results are given in words; binding and its absence hold for the method and conditions named. In cells and extracts the contact can be indirect. Binding calls can cover weak binding; strength is not graded here. For some assays here: Tags and fused reporters may be left off the sequences shown.

Amino acid sequences for entries named in this document (tags omitted). A change or cut given only in a name is not applied to a line headed by its entry.
UniProt P39938: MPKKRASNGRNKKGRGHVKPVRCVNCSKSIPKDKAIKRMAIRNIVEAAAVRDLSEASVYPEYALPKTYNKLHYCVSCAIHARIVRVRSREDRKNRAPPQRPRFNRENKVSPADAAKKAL

Columns and labels:
[1] = biological target: T1, GST-Kap123 (S. cerevisiae) (UniProt P40069); assay: pull-down; GST-importins immobilised on Glutathione Sepharose, incubated with E. coli lysate containing ∼4 µM eS26^FLAG (or its mutants, or GFP-eS26) in PBSKMT with competing E. coli lysates for 1 hr at 4°C; Coomassie Blue staining or Western; only the target purified
T1 sequence: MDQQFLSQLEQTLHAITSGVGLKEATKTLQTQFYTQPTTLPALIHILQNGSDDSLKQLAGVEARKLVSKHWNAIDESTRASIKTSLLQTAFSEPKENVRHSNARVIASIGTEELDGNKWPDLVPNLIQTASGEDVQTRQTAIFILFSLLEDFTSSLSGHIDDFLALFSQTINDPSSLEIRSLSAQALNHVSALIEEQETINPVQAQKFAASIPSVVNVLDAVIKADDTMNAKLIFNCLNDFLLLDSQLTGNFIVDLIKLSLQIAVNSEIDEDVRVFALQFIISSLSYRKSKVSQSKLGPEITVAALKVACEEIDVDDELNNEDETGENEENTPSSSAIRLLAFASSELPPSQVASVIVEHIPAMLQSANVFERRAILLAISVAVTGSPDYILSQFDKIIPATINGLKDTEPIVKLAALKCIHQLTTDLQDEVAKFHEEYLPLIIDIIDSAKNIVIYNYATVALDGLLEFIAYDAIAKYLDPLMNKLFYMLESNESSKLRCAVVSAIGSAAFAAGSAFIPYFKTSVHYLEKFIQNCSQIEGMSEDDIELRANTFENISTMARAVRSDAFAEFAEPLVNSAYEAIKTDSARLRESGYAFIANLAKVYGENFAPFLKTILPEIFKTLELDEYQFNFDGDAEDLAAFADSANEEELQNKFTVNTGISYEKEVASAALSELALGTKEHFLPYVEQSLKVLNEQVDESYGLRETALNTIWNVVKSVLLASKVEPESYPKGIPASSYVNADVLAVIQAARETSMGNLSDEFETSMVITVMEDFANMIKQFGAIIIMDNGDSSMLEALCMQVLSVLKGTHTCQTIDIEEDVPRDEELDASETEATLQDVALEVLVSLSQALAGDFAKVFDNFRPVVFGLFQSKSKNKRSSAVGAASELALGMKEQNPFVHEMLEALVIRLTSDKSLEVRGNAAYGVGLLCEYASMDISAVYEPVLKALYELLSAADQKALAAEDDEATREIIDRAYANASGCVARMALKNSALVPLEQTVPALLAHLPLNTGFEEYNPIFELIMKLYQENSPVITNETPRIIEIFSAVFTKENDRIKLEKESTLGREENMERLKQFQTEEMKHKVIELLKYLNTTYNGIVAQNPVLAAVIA

[2] = biological target: T2, GST-Kap104 (S. cerevisiae) (UniProt P38217); assay: as above
T2 sequence: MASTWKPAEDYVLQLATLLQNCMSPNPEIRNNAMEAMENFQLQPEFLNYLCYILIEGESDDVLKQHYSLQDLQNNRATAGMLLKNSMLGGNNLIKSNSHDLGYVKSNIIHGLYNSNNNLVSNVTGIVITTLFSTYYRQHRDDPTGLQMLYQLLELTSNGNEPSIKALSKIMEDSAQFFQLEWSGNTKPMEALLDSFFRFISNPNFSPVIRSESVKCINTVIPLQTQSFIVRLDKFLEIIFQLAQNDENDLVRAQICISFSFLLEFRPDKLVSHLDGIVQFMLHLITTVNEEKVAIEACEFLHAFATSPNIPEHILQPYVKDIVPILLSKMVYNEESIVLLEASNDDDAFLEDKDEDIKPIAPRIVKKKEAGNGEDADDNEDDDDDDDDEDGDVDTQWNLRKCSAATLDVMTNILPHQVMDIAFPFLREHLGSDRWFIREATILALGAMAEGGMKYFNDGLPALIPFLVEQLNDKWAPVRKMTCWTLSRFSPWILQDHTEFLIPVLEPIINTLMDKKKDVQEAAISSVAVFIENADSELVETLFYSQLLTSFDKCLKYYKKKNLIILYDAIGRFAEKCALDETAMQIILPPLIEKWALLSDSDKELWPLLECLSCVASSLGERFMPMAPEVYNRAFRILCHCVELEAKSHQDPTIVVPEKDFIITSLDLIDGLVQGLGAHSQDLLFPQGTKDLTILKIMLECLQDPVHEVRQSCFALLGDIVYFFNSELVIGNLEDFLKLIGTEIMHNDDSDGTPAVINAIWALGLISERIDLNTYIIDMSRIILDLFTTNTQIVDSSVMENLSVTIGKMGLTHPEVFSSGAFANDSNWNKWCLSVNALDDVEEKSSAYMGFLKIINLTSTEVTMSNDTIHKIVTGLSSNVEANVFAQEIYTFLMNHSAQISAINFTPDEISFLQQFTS

GST-Pse1 (S. cerevisiae) = biological target: T3, GST-Pse1 (S. cerevisiae) (UniProt P32337); assay: as above
T3 sequence: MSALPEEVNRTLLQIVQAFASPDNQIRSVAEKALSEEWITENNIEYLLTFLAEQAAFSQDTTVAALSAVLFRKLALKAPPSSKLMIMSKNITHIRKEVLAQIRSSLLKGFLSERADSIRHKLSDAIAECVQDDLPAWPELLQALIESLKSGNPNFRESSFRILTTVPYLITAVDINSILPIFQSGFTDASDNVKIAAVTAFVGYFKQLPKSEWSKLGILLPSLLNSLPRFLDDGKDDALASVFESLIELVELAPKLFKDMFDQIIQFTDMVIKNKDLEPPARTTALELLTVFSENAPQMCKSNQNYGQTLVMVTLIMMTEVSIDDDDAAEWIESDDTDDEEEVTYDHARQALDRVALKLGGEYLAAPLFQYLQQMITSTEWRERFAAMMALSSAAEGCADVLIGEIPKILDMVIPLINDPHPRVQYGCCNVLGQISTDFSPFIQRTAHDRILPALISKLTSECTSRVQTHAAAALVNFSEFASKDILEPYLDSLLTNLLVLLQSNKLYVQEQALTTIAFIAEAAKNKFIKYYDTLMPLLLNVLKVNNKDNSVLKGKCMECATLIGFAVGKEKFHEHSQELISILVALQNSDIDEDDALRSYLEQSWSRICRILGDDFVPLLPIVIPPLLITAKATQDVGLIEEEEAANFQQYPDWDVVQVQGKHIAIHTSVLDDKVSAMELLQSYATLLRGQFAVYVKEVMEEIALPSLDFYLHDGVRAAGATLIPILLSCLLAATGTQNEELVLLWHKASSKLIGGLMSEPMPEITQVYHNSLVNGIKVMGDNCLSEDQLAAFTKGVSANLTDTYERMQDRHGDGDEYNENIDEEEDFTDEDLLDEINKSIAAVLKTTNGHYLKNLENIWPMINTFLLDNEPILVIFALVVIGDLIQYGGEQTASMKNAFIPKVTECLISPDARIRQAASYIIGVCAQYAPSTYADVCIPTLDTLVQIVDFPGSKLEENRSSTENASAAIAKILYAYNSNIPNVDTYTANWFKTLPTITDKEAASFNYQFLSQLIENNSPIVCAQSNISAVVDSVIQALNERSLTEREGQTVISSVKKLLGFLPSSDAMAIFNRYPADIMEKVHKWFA

Pno1-TAP (S. cerevisiae) = biological target: T4, Pno1-TAP (S. cerevisiae) (UniProt Q99216); assay: co-IP; tandem affinity purification of pre-ribosomal particles by TAP-tagged baits from yeast (WT and, for Enp1-TAP, Tsr2-depleted cells); Calmodulin-eluates analysed by Western
T4 sequence: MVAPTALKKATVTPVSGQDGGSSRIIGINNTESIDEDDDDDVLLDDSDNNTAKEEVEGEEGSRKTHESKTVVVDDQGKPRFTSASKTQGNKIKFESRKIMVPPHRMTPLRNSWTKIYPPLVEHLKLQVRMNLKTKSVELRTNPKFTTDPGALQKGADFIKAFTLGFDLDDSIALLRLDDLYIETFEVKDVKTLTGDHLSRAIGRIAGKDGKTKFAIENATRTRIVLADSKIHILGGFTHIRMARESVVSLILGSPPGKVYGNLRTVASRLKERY

[3] = biological target: T1, GST-Kap123 (S. cerevisiae); assay: pull-down; dissociation assay, 1 hr: GST-importin:r-protein^FLAG complexes pre-formed on Glutathione Sepharose (r-protein from E. coli lysate) incubated with buffer alone, 1.5 µM RanGTP, 1.5 µM Tsr2 or His6-Tsr2, or 3 nM 3'-end of 18S rRNA for 1 hr at 4°C; only the target purified

In the case of GFP-eS26 (from UniProt P39938), the binding [1] is reported as “binds”, the binding [2] is reported as “binds” and the binding (GST-Pse1 (S. cerevisiae)) is reported as “binds”.

For “eS26 (yeast Rps26), endogenous (from UniProt P39938)”, the binding (Pno1-TAP (S. cerevisiae)) was “binds”.

In the case of uS14^FLAG (S. cerevisiae), the binding [3] is reported as “binds”.
